Measured values as given in PubChem BioAssay.
This is one part of the list. The main result of the screen is listed elsewhere. These columns were measured beside it and carry no call. Compounds called inactive in the main read-out are mostly missing here.

Assay: enhancers of SMN2 over SMN1 splicing, cell-based, SMN2/SMN1 luciferase reporters (AID 1598)
Settings: SMN2 vs SMN1 luciferase splicing reporter cells, at 10 µM; SMN1 luciferase ratio: measured here: SMN1 luciferase reporter average; SMN2 luciferase ratio: measured here: SMN2 luciferase reporter average, stronger effect = higher value

Compound	SMN1 luciferase ratio	SMN2 luciferase ratio
CC(C)CC1C(=O)N2CCC[C@H]2C2(O)O[C@](NC(=O)C3C=C4c5cccc6[nH]c(Br)c(c56)C[C@H]4N(C)C3)(C(C)C)C(=O)N12 (stereo partly specified)	0.95	0.98
CC(NCCC(c1ccccc1)c1ccccc1)c1ccccc1 (stereo unspecified)	0.83	0.74
CCN(CC)CCNc1ccc(CO)c2sc3ccccc3c(=O)c12	0.59	0.64
C[N+](C)(C)CCOC(N)=O	1	0.93
COc1ccc(C[C@H](N)C(=O)N[C@@H]2[C@@H](CO)OC(n3cnc4c(N(C)C)ncnc43)[C@@H]2O)cc1 (stereo partly specified)	0.09	0.13
Nc1c2c(nc3ccccc13)CCCC2	0.95	0.98
CC(C)C(=O)Nc1ccc([N+](=O)[O-])c(C(F)(F)F)c1	0.68	0.69
CCOC(=O)N1CCC(=C2c3ccc(Cl)cc3CCc3cccnc32)CC1	0.82	0.77
NCCCCNCCCN	0.78	0.9
OCC(S)CS (stereo unspecified)	0.94	1.04
CCCCC(=O)OC1(C(=O)CO)C(C)CC2C3CCC4=CC(=O)C=CC4(C)[C@@]3(F)[C@@H](O)CC21C (stereo partly specified)	0.95	1.07
O=c1cc(-c2ccc(O)cc2)oc2cc(O)cc(O)c12	1.5	1.45
Oc1c(Cl)cc(Cl)cc1Sc1cc(Cl)cc(Cl)c1O	0.97	0.84
Nc1c(Br)cc(Br)cc1CNC1CCC(O)CC1 (stereo unspecified)	0.82	0.87
CN(C)CCOC(c1ccc(Cl)cc1)c1ccccn1 (stereo unspecified)	0.9	1.14
CC1(C)O[C@@H]2CC3C4C[C@H](F)C5=CC(=O)C=CC5(C)C4C(O)CC3(C)[C@]2(C(=O)CO)O1 (stereo partly specified)	0.88	0.83
CC(=O)OCC(=O)[C@@]1(O)[C@H](C)CC2C3CCC4=CC(=O)C=C[C@]4(C)[C@@]3(F)[C@@H](O)C[C@@]21C (stereo partly specified)	0.86	0.86
CC[C@H]1OC(=O)[C@H](C)[C@@H](O[C@H]2C[C@@](C)(OC)[C@@H](O)[C@H](C)O2)[C@H](C)[C@@H](O[C@@H]2O[C@H](C)C[C@H](N(C)C)[C@H]2O)[C@](C)(O)C[C@@H](C)CN(C)[C@H](C)[C@@H](O)[C@]1(C)O	0.87	0.88
O=C(Nc1ccc([N+](=O)[O-])cc1Cl)c1cc(Cl)ccc1O	0.5	0.45

2 entries from above, set out differently:
Compound | SMN1 luciferase ratio | SMN2 luciferase ratio
CC(C)C(=O)Nc1ccc([N+](=O)[O-])c(C(F)(F)F)c1 | 0.68 | 0.69
O=c1cc(-c2ccc(O)cc2)oc2cc(O)cc(O)c12 | 1.5 | 1.45

Following part.

Compound	SMN1 luciferase ratio	SMN2 luciferase ratio
Cc1ccc(C(=O)C(C)CN2CCCCC2)cc1 (stereo unspecified)	0.96	0.92
NC(=NCc1ccccc1)NC(=O)c1nc(Cl)c(N)nc1N	0.99	1.11
COc1cc2ccc(=O)oc2cc1O	0.9	0.97
C=C1C(=O)OC2C1CCC1(C)CCC=C(C)C21 (stereo unspecified)	0.96	0.96
CO/N=C(/C(=O)N[C@@H]1C(=O)N2C(C(=O)O)=C(COC(C)=O)CS[C@H]12)c1csc(N)n1	0.92	0.88
O=C(c1ccccc1)c1ccc2n1CCC2C(=O)O (stereo unspecified)	0.59	0.7
CC(NC(=O)C(NC(=O)OCc1ccccc1)C(C)C)C(=O)NC(CC(=O)O)C(=O)OC(F)F (stereo unspecified)	0.94	0.8
CC(C)(C)CC(C)(C)c1ccc(OCCOCC[N+](C)(C)Cc2ccccc2)cc1	0.33	0.41
CCOc1ccc2c(c1)C(C)=CC(C)(C)N2	0.94	0.89
CNC(=O)Oc1ccc2c(c1)[C@]1(C)CCN(C)[C@@H]1N2C	0.84	0.88
CC(=O)Nc1ccc(S(=O)(=O)Nc2ccc([N+](=O)[O-])cc2)cc1	0.89	0.78
O=C(O)c1cc2cc(Cc3cccnc3)ccc2o1	0.91	1.05
CN(C)c1ccc(C(=C2C=CC(=[N+](C)C)C=C2)c2ccc(N(C)C)cc2)cc1	0.43	0.42
COc1ccc(-c2coc3cc(O)cc(O)c3c2=O)cc1	1.48	1.67
NC(=O)N/N=C/c1ccc([N+](=O)[O-])o1	0.94	0.99
CC(=O)c1c(O)c(C)c(O)c2c1OC1=CC(=O)C(C(C)=O)C(=O)C12C (stereo unspecified)	0.81	0.76
O=NN(CCCl)C(=O)NCCCl	0.9	0.87
CO[C@@]12[C@@H]3NC3CN1C1=C(C(=O)C(N)=C(C)C1=O)[C@@H]2COC(N)=O (stereo partly specified)	0.24	0.33
C[C@H]1c2cccc(O)c2C(O)=C2C(=O)[C@]3(O)C(O)=C(C(N)=O)C(=O)[C@@H](N(C)C)[C@@H]3[C@@H](O)[C@@H]21	0.88	0.88
